Values from PubChem BioAssay AID743121 (NCATS, 2013)

Test: 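Knock-downs that sensitise breast cancer cells to camptothecin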 (primary screen)
Cells: MDA-MB-231 cells, a human breast cancer line
Reagent: single siRNA against human genes, 20 nM siRNA (0.8 pmol per well)
Time to read-out: 120 h (drug added 48 h after transfection, read 72 h later)
Treatment: camptothecin 20 nM (about EC30) for 72 h; vehicle 0.1% DMSO in parallel plates
Detection: 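CellTiter-Glo ATP signal, scaled to control siRNA as percent viability; sensitisation given as log2 of untreated divided by camptothecin-treated viability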
Scale: log2 vehicle/camptothecin viability: higher = stronger sensitisation to camptothecin
Hit rule: 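Active genes have an RSA gene-level p-value below 0.001, computed from the ratios of their separate siRNAs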
This is one part, drawn at random, of about 26,000 reagents tested. In the full data, 167 (0.63%) are marked active. 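Calls are per gene from RSA p-values that are not deposited; an individual active-marked siRNA can sensitise only weakly.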 Unmarked entries are inactive. Reagents against one gene are numbered here. Not all columns of the deposit are shown.

After knock-down of DOK1 (GeneID 1796) #1 the results were log2 vehicle/camptothecin viability -0.289.
After knock-down of DOK1 (GeneID 1796) #2, the screen gave log2 vehicle/camptothecin viability -0.22.
DOK1 (GeneID 1796) #3 showed log2 vehicle/camptothecin viability -0.078.
With knock-down of DOK1 (GeneID 1796) #4 the results were log2 vehicle/camptothecin viability -0.511.
After knock-down of PDCD6 (GeneID 10016) #1, the record shows log2 vehicle/camptothecin viability -0.122.
Against PDCD6 (GeneID 10016) #2 the deposit lists log2 vehicle/camptothecin viability -0.682.
Depletion of PDCD6 (GeneID 10016) #3 came out at: log2 vehicle/camptothecin viability -0.0826.
Silencing of PDCD6 (GeneID 10016) #4 resulted in: log2 vehicle/camptothecin viability 0.457.
Against PPFIA1 (GeneID 8500) #1, the values are log2 vehicle/camptothecin viability -0.0757.
PPFIA1 (GeneID 8500) #2 showed log2 vehicle/camptothecin viability -0.142.
After knock-down of PPFIA1 (GeneID 8500) #3, the screen gave log2 vehicle/camptothecin viability -0.154.
Silencing of PPFIA1 (GeneID 8500) #4 gave: log2 vehicle/camptothecin viability -0.334.
With knock-down of FUS (GeneID 2521) #1 the results were log2 vehicle/camptothecin viability -0.0984.
Depletion of FUS (GeneID 2521) #2 resulted in: log2 vehicle/camptothecin viability -0.185.
With knock-down of FUS (GeneID 2521) #3, the record shows log2 vehicle/camptothecin viability -0.35.
After knock-down of FUS (GeneID 2521) #4 the results were log2 vehicle/camptothecin viability -0.298.
Knock-down of MOB1A (GeneID 55233) #1 came out at: log2 vehicle/camptothecin viability -0.0383.
MOB1A (GeneID 55233) #2 gave log2 vehicle/camptothecin viability 0.233.
For MOB1A (GeneID 55233) #3, the entry reads log2 vehicle/camptothecin viability -0.512.
MOB1A (GeneID 55233) #4 scored log2 vehicle/camptothecin viability 0.0828.
CUL2 (GeneID 8453) #1 scored log2 vehicle/camptothecin viability 0.155.
For CUL2 (GeneID 8453) #2 the deposit lists log2 vehicle/camptothecin viability -0.656.
CUL2 (GeneID 8453) #3 scored log2 vehicle/camptothecin viability -0.0684.
Silencing of CUL2 (GeneID 8453) #4 resulted in: log2 vehicle/camptothecin viability -0.149.
Against SLA2 (GeneID 84174) #1 the deposit lists log2 vehicle/camptothecin viability 0.213.
SLA2 (GeneID 84174) #2 gave log2 vehicle/camptothecin viability -0.556.
SLA2 (GeneID 84174) #3 showed log2 vehicle/camptothecin viability -0.253.
TRIM37 (GeneID 4591) #1 gave log2 vehicle/camptothecin viability -0.408.
Against TRIM37 (GeneID 4591) #2, the values are log2 vehicle/camptothecin viability -0.0459.
With knock-down of TRIM37 (GeneID 4591) #3, the screen gave log2 vehicle/camptothecin viability -0.101.
TRIM37 (GeneID 4591) #4 gave log2 vehicle/camptothecin viability -0.339.
BUB1B (GeneID 701) #1 scored log2 vehicle/camptothecin viability -0.526.
BUB1B (GeneID 701) #2 showed log2 vehicle/camptothecin viability 0.0311.
BUB1B (GeneID 701) #3 gave log2 vehicle/camptothecin viability -0.143.
BUB1B (GeneID 701) #4 scored log2 vehicle/camptothecin viability 1.47.
